Test results reported in PMC6220262.
Results are given in words; binding and its absence hold for the method and conditions named. In cells and extracts the contact can be indirect. Some binding calls cover weakened binding; strength is not graded here. For some of these results: Sequences can lack the tags named with a protein.

By UniProt entry, the sequences of proteins in these tests, tags left out.
UniProt P41208: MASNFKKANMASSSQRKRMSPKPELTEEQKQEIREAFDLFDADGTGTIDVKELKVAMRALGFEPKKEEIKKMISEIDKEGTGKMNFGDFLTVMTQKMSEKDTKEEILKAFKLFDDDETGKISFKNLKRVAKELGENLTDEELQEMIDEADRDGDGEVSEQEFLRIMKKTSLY
UniProt P53350: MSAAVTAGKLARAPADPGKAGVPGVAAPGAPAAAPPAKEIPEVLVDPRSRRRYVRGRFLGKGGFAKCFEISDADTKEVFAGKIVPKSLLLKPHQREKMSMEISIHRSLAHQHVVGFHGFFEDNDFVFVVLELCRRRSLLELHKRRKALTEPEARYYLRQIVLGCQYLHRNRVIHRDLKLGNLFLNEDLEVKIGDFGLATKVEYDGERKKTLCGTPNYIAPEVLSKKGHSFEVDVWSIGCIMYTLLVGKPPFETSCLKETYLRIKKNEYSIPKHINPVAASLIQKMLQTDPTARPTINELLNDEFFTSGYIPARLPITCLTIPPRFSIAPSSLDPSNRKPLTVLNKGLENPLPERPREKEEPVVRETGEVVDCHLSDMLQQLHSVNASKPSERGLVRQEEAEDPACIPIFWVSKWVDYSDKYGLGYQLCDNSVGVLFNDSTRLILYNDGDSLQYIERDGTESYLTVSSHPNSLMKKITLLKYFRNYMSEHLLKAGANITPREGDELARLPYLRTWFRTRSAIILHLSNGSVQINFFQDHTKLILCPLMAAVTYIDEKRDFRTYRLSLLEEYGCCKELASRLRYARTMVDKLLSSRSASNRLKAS

B1: human SPAG5 (Astrin), myc-tagged (protein, UniProt Q96R06 1-1193)
chain: MWRVKKLSLSLSPSPQTGKPSMRTPLRELTLQPGALTNSGKRSPACSSLTPSLCKLGLQEGSNNSSPVDFVNNKRTDLSSEHFSHSSKWLETCQHESDEQPLDPIPQISSTPKTSEEAVDPLGNYMVKTIVLVPSPLGQQQDMIFEARLDTMAETNSISLNGPLRTDDLVREEVAPCMGDRFSEVAAVSEKPIFQESPSHLLEESPPNPCSEQLHCSKESLSSRTEAVREDLVPSESNAFLPSSVLWLSPSTALAADFRVNHVDPEEEIVEHGAMEEREMRFPTHPKESETEDQALVSSVEDILSTCLTPNLVEMESQEAPGPAVEDVGRILGSDTESWMSPLAWLEKGVNTSVMLENLRQSLSLPSMLRDAAIGTTPFSTCSVGTWFTPSAPQEKSTNTSQTGLVGTKHSTSETEQLLCGRPPDLTALSRHDLEDNLLSSLVILEVLSRQLRDWKSQLAVPHPETQDSSTQTDTSHSGITNKLQHLKESHEMGQALQQARNVMQSWVLISKELISLLHLSLLHLEEDKTTVSQESRRAETLVCCCFDLLKKLRAKLQSLKAEREEARHREEMALRGKDAAEIVLEAFCAHASQRISQLEQDLASMREFRGLLKDAQTQLVGLHAKQEELVQQTVSLTSTLQQDWRSMQLDYTTWTALLSRSRQLTEKLTVKSQQALQERDVAIEEKQEVSRVLEQVSAQLEECKGQTEQLELENSRLATDLRAQLQILANMDSQLKELQSQHTHCAQDLAMKDELLCQLTQSNEEQAAQWQKEEMALKHMQAELQQQQAVLAKEVRDLKETLEFADQENQVAHLELGQVECQLKTTLEVLRERSLQCENLKDTVENLTAKLASTIADNQEQDLEKTRQYSQKLGLLTEQLQSLTLFLQTKLKEKTEQETLLLSTACPPTQEHPLPNDRTFLGSILTAVADEEPESTPVPLLGSDKSAFTRVASMVSLQPAETPGMEESLAEMSIMTTELQSLCSLLQESKEEAIRTLQRKICELQARLQAQEEQHQEVQKAKEADIEKLNQALCLRYKNEKELQEVIQQQNEKILEQIDKSGELISLREEVTHLTRSLRRAETETKVLQEALAGQLDSNCQPMATNWIQEKVWLSQEVDKLRVMFLEMKNEKEKLMIKFQSHRNILEENLRRSDKELEKLDDIVQHIYKTLLSIPEVVRGCKELQGLLEFLS
B2: human DEUP1 (Deuterosome assembly protein 1), myc-tagged (protein, UniProt Q05D60 1-604)
chain: MENQAHNTMGTSPCEAELQELMEQIDIMVSNKKMDWERKMRALETRLDLRDQELANAQTCLDQKGQEVGLLRQKLDSLEKCNLAMTQNYEGQLQSLKAQFSKLTNNFEKLRLHQMKQNKVPRKELPHLKEEIPFELSNLNQKLEEFRAKSREWDKQEILYQTHLISLDAQQKLLSEKCNQFQKQAQSYQTQLNGKKQCLEDSSSEIPRLICDPDPNCEINERDEFIIEKLKSAVNEIALSRNKLQDENQKLLQELKMYQRQCQAMEAGLSEVKSELQSRDDLLRIIEMERLQLHRELLKIGECQNAQGNKTRLESSYLPSIKEPERKIKELFSVMQDQPNHEKELNKIRSQLQQVEEYHNSEQERMRNEISDLTEELHQKEITIATVTKKAALLEKQLKMELEIKEKMLAKQKVSDMKYKAVRTENTHLKGMMGDLDPGEYMSMDFTNREQSRHTSINKLQYENERLRNDLAKLHVNGKSTWTNQNTYEETGRYAYQSQIKVEQNEERLSHDCEPNRSTMPPLPPSTFQAKEMTSPLVSDDDVFPLSPPDMSFPASLAAQHFLLEEEKRAKELEKLLNTHIDELQRHTEFTLNKYSKLKQNRHI
B3: CDC20B, endogenous in human airway epithelial cells (protein, UniProt Q86Y33 1-519)
chain: MEWKLERTAPRRVRTEEEMLWESIMRVLSKDLKQKRSQDSANVLDSVNATYSDFKSNFAKRLSAEVPVASSPITTRWQQSQTRALSSDSFGEEQSTTYLPEASGSVLKTPPEKETLTLGSRKEQLKTPSKGISETSNSALHFCKAPHAMDRDWKESVASKGQKCLKQLFVTQNVVQQANGKMQLCEQSECVWKGCKDGVRDESFHLKSSGDINDSILQPEVKIHITGLRNDYYLNILDWSFQNLVAIALGSAVYIWNGENHNGIENIDLSLTCNYISSVSWIKEGTCLAVGTSEGEVQLWDVVTKKRLRNMLGHLSVVGALSWNHFILSSGSRLGRVYHHDVRVAQHHVGTLRHKQAVCALKWSPDGRLLSSGCSDGLLTIWPHDPGASAQGQPLKVITQSTAVKAMDWCPWQSGVLAIGGGMKDGRLHILDINAGKSIQTPSTNSQICSLIWLPKTKEIATGQGTPKNDVTVWTCPTVSRSGGFFGHRGRVLHLSLSPDQTRVFSAAADGTASVWNCY

What was measured:
[1] = target: T1, human CDC20B (cell division cycle 20B), GFP fusion protein (human) (UniProt Q86Y33); experiment: co-IP; asynchronous HEK cells transfected with the constructs; lysis in 0.025 M Tris, 0.15 M NaCl, 0.001 M EDTA, 1% NP-40, 5% glycerol, pH 7.4; Pierce co-immunoprecipitation kit, columns coupled with anti-GFP or anti-c-myc (9E10), overnight at 4 °C; immunoblot with anti-CDC20B or anti-c-myc; reciprocal
T1 sequence: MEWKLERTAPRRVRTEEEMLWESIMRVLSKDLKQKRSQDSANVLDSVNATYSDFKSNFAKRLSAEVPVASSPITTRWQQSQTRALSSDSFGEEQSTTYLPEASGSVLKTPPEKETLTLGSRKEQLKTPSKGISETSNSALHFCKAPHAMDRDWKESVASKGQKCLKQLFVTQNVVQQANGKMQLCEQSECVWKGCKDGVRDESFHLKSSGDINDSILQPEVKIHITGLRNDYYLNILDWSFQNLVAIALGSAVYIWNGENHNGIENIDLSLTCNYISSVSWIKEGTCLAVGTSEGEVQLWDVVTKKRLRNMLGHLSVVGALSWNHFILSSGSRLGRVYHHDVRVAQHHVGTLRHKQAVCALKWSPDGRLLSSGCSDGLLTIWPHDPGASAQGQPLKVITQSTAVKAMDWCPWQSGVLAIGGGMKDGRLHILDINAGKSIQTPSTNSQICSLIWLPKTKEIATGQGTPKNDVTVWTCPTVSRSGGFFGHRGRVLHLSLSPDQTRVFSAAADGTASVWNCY

[2] = target: Centrin2 (human (endogenous in HAECs)) (UniProt P41208); experiment: proximity ligation; fully differentiated HAECs dissociated and cytocentrifuged onto slides, fixed (methanol for Centrin2; 4% paraformaldehyde and Triton X-100 for acetylated α-tubulin); primary antibodies 2 h at room temperature; Duolink Red kit

Molecule | binding [1] | binding [2]
human PLK1, myc-tagged (from UniProt P53350 1-603) (enzyme) | binds | –
B1 | binds | –
B2 | binds | –
B3 | – | binds
